Library screen at single concentrations

From ChEMBL document CHEMBL3988442, “University of Dundee, Small-Polar-MMV Screening Library” (2021).

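Whole-cell growth test on Mycobacterium tuberculosis, read after 3 days in glucose-containing 7H9 medium; the read-out is not stated. Tested at 50 µM. Higher reads as more growth inhibition (inferred: compounds with an IC50 in retests scored well above the rest). About 69,000 compounds were tested under these conditions; 1.1% (about 760) showed 50% or more at least once.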

Results are given as percent effect. The controls that fix the scale are not given in the record; negative values are as filed. The compounds are a random part of those screened. Two or more numbers in one place are separate tests of the same structure; such repeats can differ widely.

compound,effect
Cn1cc(C(=O)NC2CCN(C(=O)NCC3CCSCC3)CC2)cn1,13.77%
Cc1c(C(=O)NC(CN2CCCC2=O)c2ccccc2)cnn1C (configuration not stated),-31.28%
Cc1occc1CN(C)Cc1nc2c(cnn2C)c(=O)[nH]1,5.223%
CCC(NC(=O)C1CCN(S(C)(=O)=O)CC1)c1ccc(C)c(C)c1 (configuration not stated),-16.32%
COc1ccc(CN(C)C(=O)NC(C)c2nncn2C)cc1F (configuration not stated),-12.49%
O=C(C1CC1)N1CCCCCC1C1CCN(c2ncccn2)CC1 (configuration not stated),-14.93% & 6.76%
CCc1nc(C2CCCN2Cc2nc3ccccc3o2)no1 (configuration not stated),-1.664%
CN1C(=O)CCc2cc(NC(=O)C3CCCC3)ccc21,-72.13% & -0.5957%
Cl.O=C(N1CCOCC1)N1CCCC2(CCCNC2)C1 (configuration not stated),4.468%
O=C(O)C(F)(F)F.[H][C@@]12CCN(CC3CCOCC3)C[C@]1(C(=O)NCc1ccco1)CCO2,-4.811% & -4.008%
Cc1nc(C(=O)N2CCN(c3ccc(Cl)c(Cl)c3)CC2)cs1,30.22% & 20.29%
CC(C)c1nccn1-c1cncc(C2CCCN2Cc2cccnc2)n1 (configuration not stated),7.557%
Cc1nn(C)c(C)c1C1CCCN1C(=O)CCCc1ccccn1 (configuration not stated),-8.518%
Cn1cc(CCNC(=O)NCc2nnc3n2CCC3)cn1,-4.24%
CN(C)CCC1CCCCN1Cc1cnc(-c2ccccn2)nc1 (configuration not stated),-9.517%
CCOc1cc(C)nc(N2CCN(C(=O)Cn3cc(C)cn3)CC2)n1,2.443% & -65.07%
CC(=O)NCCNC(=O)c1sc(-c2ccc(Cl)s2)nc1C,-34.82%
O=C(C1CCS(=O)(=O)CC1)N1CCC(c2ccc(F)cc2)C1 (configuration not stated),-50.95%
[H][C@@]12CS(=O)(=O)C[C@]1([H])N(Cc1ccc(CCC)o1)CCN2C(=O)CC(C)C,18.22%
CN1CCN(C(=O)c2n[nH]c3c2CCN(Cc2nccs2)C3)CC1,-27.25% & -0.4732%
O=C(NC[C@H]1OC[C@@H](NC2CCCCC2)[C@@H]1O)c1cccs1,-33.67% & 5.386%
CC(C)NC(=O)NCCn1cnc(C2CCCC2)cc1=O,-11.07% & -0.3946%
O=C(NCCC(=O)N1CCCC1)c1nn(-c2ccccc2F)cc1O,4.591%
CCc1nccn1C1CCCN(C(=O)Cc2n[nH]c3ccccc23)C1 (configuration not stated),-21.61%
Cc1ccc(C(=O)NCCCN(C(C)C)S(C)(=O)=O)c(=O)[nH]1,9.264%
CC(C)C(C)N(C(=O)Cn1nc2n(c1=O)CCCCC2)C1CC1 (configuration not stated),22.64%
COCCNc1ccc(CC2CCCN(Cc3c[nH]cn3)C2)nn1 (configuration not stated),-25.21%
[H][C@@]12CS(=O)(=O)C[C@]1([H])N(Cc1ccc(F)c(C)c1)CCN2CCOC,-37.56%
CCc1nc(C)c(C2CC(=O)Nc3c2c(-c2cccnc2)nn3C)[nH]1 (configuration not stated),3.874% & -24.1%
CC(C)C(=O)NC1CCN(CCO)CC1,-44.01%
CCOC(=O)[C@@H]1[C@@H](OC)C(=O)N(C)C12CCN(C(=O)C(CC)CC)CC2,4.209%
O=C(Nc1ccccc1N1CCOC1=O)N1CCc2sccc2C1,5.276%
COc1ccc(-c2nccnc2C2CCN(C(C)=O)CC2)cc1,-51.04%
O=C(C1CC1)N1CCC(Nc2nc(O)cc(-c3ccsc3)n2)CC1,-3.253%
[H][C@@]12OCCN(C(=O)c3ccc(OC)c(F)c3)[C@@]1([H])CC[C@@H]2OCC1CC1,-3.94% & 2.043%
CC(=O)c1cc(CC(=O)N2CCCC2c2nc(C(C)C)no2)cs1 (configuration not stated),9.718%
COc1cccc(C2CCN2C(=O)c2cc(C(C)C)on2)c1 (configuration not stated),28.95%
Cc1cnn(CC2CN(Cc3nc4ccccc4s3)CCO2)c1 (configuration not stated),49.72%
CCOC(=O)CC(C)Nc1nc(C2CCCC2)nc2c1cnn2C (configuration not stated),5.706%
CCCn1cnc2c1CN(S(=O)(=O)c1ccc(F)cc1)[C@H](C(=O)OC)C2,1.914% & -1.044%
Cc1cccc(C2CCCN(C(=O)C3CCN(CC(N)=O)CC3)C2)c1 (configuration not stated),13.91%
CC(C)[C@@H](C)NC1CCN(c2ccc(-n3ccnc3)cc2)CC1,-13.15%
O=C(NCC1CC1)C1CCC2(CCN(C(=O)c3ccoc3)CC2)O1 (configuration not stated),-21.77%
O=C(Cn1c(=O)n(Cc2ccco2)c2ncccc21)NC1CCCC1,0.8004%
CCn1cnnc1C1CCN(C(=O)c2cc(C)n(CC)c2C)CC1,11.56%
CC(C)CC(CC(C)C)NC(=O)c1ccn(C)c(=O)c1,-20.76%
Cc1nc(C)n(CC2CCCCN2CC(=O)NCc2ccccn2)n1 (configuration not stated),-15.73%
Cn1cc(N2CC3(CCN(Cc4cccs4)CC3)OCC2=O)cn1.O=C(O)C(F)(F)F,19.57%
CCc1nccn1CCCNC(=O)CN1CCN(c2ncccn2)CC1,-21.92%
Cc1ccc(S(=O)(=O)N2CCN(CCC(N)=O)CC2)s1,11.48%
Cn1cc(C(=O)NCc2cn3c(n2)CN(CC2CCOCC2)CC3)cn1.O=C(O)C(F)(F)F,-28.3%

For reference, 6 entries once more:

| compound | effect |
|---|---|
| `O=C(C1CC1)N1CCCCCC1C1CCN(c2ncccn2)CC1` (configuration not stated) | -14.93% & 6.76% |
| `COc1ccc(-c2nccnc2C2CCN(C(C)=O)CC2)cc1` | -51.04% |
| `CC(C)C(C)N(C(=O)Cn1nc2n(c1=O)CCCCC2)C1CC1` (configuration not stated) | 22.64% |
| `O=C(C1CCS(=O)(=O)CC1)N1CCC(c2ccc(F)cc2)C1` (configuration not stated) | -50.95% |
| `CCc1nc(C2CCCN2Cc2nc3ccccc3o2)no1` (configuration not stated) | -1.664% |
| `Cl.O=C(N1CCOCC1)N1CCCC2(CCCNC2)C1` (configuration not stated) | 4.468% |